Assay results as given in patent WO2014006105A1.
Results are given in words; binding and its absence hold for the method and conditions named. Some entries that bind do so weakly or less than the wild type.

The chains behind the UniProt entries cited, without tags or fusion partners.
UniProt Q9NQC3: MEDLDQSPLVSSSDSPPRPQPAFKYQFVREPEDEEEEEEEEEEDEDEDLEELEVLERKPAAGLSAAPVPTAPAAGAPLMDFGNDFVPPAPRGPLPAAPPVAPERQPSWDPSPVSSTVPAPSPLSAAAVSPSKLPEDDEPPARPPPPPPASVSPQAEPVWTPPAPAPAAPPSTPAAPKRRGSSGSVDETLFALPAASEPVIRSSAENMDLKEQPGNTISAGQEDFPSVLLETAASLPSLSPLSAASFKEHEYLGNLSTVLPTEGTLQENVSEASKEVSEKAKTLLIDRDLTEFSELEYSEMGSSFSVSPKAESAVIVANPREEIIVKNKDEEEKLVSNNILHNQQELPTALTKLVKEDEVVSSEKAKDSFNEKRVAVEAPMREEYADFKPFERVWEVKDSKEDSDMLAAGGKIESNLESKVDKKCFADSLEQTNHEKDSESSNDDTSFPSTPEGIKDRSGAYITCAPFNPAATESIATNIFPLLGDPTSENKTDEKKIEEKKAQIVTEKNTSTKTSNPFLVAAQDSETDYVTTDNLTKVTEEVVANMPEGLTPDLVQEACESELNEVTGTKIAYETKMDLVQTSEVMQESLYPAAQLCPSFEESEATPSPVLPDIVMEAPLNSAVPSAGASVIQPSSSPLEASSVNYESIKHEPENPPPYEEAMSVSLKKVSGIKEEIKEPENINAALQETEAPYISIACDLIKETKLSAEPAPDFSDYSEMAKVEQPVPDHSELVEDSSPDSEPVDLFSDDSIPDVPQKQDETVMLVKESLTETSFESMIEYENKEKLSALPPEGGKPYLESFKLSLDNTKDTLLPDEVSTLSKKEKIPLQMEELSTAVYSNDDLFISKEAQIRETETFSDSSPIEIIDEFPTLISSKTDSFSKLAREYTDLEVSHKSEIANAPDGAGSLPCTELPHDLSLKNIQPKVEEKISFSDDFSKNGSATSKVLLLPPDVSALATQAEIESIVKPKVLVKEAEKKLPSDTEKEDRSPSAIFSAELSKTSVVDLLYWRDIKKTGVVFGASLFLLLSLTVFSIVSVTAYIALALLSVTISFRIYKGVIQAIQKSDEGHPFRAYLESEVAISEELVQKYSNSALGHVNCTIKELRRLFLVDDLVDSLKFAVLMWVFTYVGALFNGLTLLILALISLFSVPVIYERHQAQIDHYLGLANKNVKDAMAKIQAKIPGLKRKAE

Key:
human Nogo-A (human) [1] = molecular target: human Nogo-A (human) (UniProt Q9NQC3); assay: laser scanning cytometry, gating and back gating, post-dose biopsy 15 mg/kg
human Nogo-A (human) [2] = molecular target: human Nogo-A (human) (UniProt Q9NQC3); assay: immunofluorescence of muscle biopsy sections, individual channels
human Nogo-A (human) [3] = molecular target: human Nogo-A (human) (UniProt Q9NQC3); assay: laser scanning cytometry of muscle biopsy sections, pre and post dose
human Nogo-A (human) [4] = molecular target: human Nogo-A (human) (UniProt Q9NQC3); assay: laser scanning cytometry of muscle biopsy sections (Figure 7 legend)

Measured: binding

B1: H28L16 (antibody, V domains shown)
VH: QVQLVQSGAEVKKPGASVKVSCKASGYTFTSYWMHWVRQAPGQGLEWIGNINPSNGGTNYNEKFKSKATMTRDTSTSTAYMELSSLRSEDTAVYYCELMQGYWGQGTLVTVSS
VL: DIVMTQSPLSNPVTLGQPVSISCRSSKSLLYKDGKTYLNWFQQRPGQSPQLLIYLMSTRASGVPDRFSGGGSGTDFTLKISRVEAEDVGVYYCQQLVEYPLTFGQGTKLEIK
binds: human Nogo-A (human) [1] | human Nogo-A (human) [2] | human Nogo-A (human) [3] | human Nogo-A (human) [4]
